Experimental findings from PMC5996148 are described below.

Some of the results follow.

Test systems include TK1 (human); TLE3 (human); TMEM103 (human); TMEM129 (human); TMEM138 (human); TMEM149 (human); TMEM159 (human); TMEM17 (human); TMEM182 (human); TMEM185A (human).
Holding throughout (test): protein microarray (ProtoArray v5.0), streptavidin-Alexa Fluor 647
What all share (details): 3'-biotin; 20 mM Tris (pH 7.5), 5 mM MgCl2, 100 mM KCl, 0.1% Tween-20, A/T-rich and random oligonucleotide blockers; temperature not stated; high values mean tight binding

Take “GGTGACAGGGGTATGGGGAGGGG [G4-2 biotinylated (Ct1)]”: the binding signal was -0.389 z-score in the assay with TK1 (human); -0.386 z-score with TLE3 (human); -0.386 z-score in the assay with TMEM103 (human); -0.379 z-score in the assay on TMEM129 (human); -0.39 z-score in the assay on TMEM138 (human); -0.379 z-score in the assay with TMEM149 (human). In addition, the binding signal in the assay on TMEM159 (human) is -0.388 z-score; in the assay on TMEM17 (human), -0.378 z-score; with TMEM182 (human), -0.372 z-score; with TMEM185A (human), -0.384 z-score.
